In all, about 300,000 compounds went through this assay and about 3,700 (1.2%) were called active. The shares of active, inactive and inconclusive entries below differ from those in the screen. The call rests on the fitted dose curve; tested in HEK293 cells. A potency beside an inconclusive call is a rough fit, not a confirmed value.
Assay: qHTS for Inhibitors of binding or entry into cells for Lassa Virus; further: nearly all actives have a fitted effect of over 50% in size
Conditions: Lassa virus pseudotype entry inhibition, cell reporter; series mostly up to 37.9 µM
In the case of `CC1CC(C)CN(CC(=O)N2CCCc3c2c(=O)oc2ccc(OCc4ccccc4)cc32)C1` (stereo not drawn), the Potency was inconclusive: 35.5 µM [inhibitor, single point].
For `Cc1ccc(S(=O)(=O)ON2C(=O)c3ccccc3C2=O)c(C)c1`, the Potency was inconclusive: 31.6 µM [inhibitor, single point].
For `O=C(COc1ccccc1Cl)NCCNC(=O)c1ccncc1`, the Potency was inconclusive: 5.62 µM [inhibitor, single point].
For `COc1ccc(Cl)cc1N(CC(=O)NCC(C)C)S(=O)(=O)c1ccc(C)c([N+](=O)[O-])c1`, the Potency was “inactive”.
In the case of `Cn1ccnc1SCC(=O)Nc1cccc(Br)c1`, the Potency was “inactive”.
In the case of `Cc1ccc(OCC(=O)N/N=C\c2c(C)[nH]n(-c3ccccc3)c2=O)c([N+](=O)[O-])c1`, the Potency was inconclusive: 20 µM [inhibitor, single point].
In the case of `CC(=O)Nc1ccc(S(=O)(=O)NCC2CCC(C(=O)NCCC(C)C)CC2)cc1` (stereo not drawn), the Potency was inconclusive: 2.24 µM [inhibitor, full curve].
With `COc1ccc(-c2nc3ccccc3o2)cc1NC(=O)Cc1ccc(Cl)cc1` the Potency was inconclusive: 3.98 µM [activator, single point].
In the case of `CN(C)S(=O)(=O)c1ccc(NC(=O)COc2cccc3c2OC(C)(C)C3)cc1`, the Potency was “inactive”.
With `COc1ccc(NC(=S)N/N=C2/CCCc3c(C)cc(C)cc32)cc1` the Potency was inconclusive: 1.41 µM [inhibitor, partial curve, poor fit].
With `Cc1ccc(CN2CCc3c(OCC(=O)Nc4cc(C)ccc4C)cccc3C2=O)cc1` the Potency was inconclusive: 20.6 µM [activator, partial curve, poor fit].
For `COc1ccc(CNCCCNCc2ccc(OC)c(OC)c2)cc1OC`, the Potency was inconclusive: 25.1 µM [inhibitor, single point].
In the case of `COc1ccccc1CN(C)C(=O)c1ccc(COc2ccccc2)cc1`, the Potency was inconclusive: 15.8 µM [inhibitor, single point].
With `Cc1ccc(-n2nnnc2SCC(=O)Nc2ccccc2N2CCCCC2)cc1C` the Potency was inconclusive: 35.5 µM [inhibitor, single point].
In the case of `COc1ccc(NC(=O)COc2ccc(/C=N/NC(=O)c3cccnc3)cc2OC)cc1`, the Potency was “inactive”.
With `COc1ccc(-c2noc(-c3ccco3)n2)cc1OC` the Potency was inconclusive: 10 µM [inhibitor, partial curve, poor fit].
With `ON=C(CCc1ccccc1)c1ccccc1` the Potency was inconclusive: 35.5 µM [inhibitor, single point].
With `O=C(N/N=C/c1ccc2c(c1)OCO2)c1ccc2ccccc2n1` the Potency was “inactive”.
With `Cc1ccc(-c2cn3nc(N4CCCC(C(=O)NCc5ccccc5F)C4)sc3n2)cc1` (stereo not drawn) the Potency was inconclusive: 2 µM [activator, partial curve, poor fit].
For `CSCCC(NS(=O)(=O)c1ccc(C)cc1)C(=O)Nc1ccc(C)cn1` (stereo not drawn), the Potency was “inactive”.
With `Cc1ccc(CNC(=O)C2CN(S(C)(=O)=O)c3cc(Cl)ccc3O2)cc1` (stereo not drawn) the Potency was inconclusive: 10 µM [activator, partial curve].
With `Cc1cc(C(=O)N/N=C/c2ccc3c(c2)OCO3)c(C)o1` the Potency was “inactive”.
In the case of `COc1ccccc1NC(=O)COc1coc(CN2CCN(c3ccccc3)CC2)cc1=O`, the Potency was inconclusive: 35.5 µM [inhibitor, partial curve, poor fit].
With `COc1ccc2cc3cc(C(=O)Nc4ccc5c(c4)OCCO5)oc3nc2c1` the Potency was inconclusive: 0.13 µM [inhibitor, full curve].
For `COc1ccc2oc(C(=O)c3ccccc3)c(N)c2c1`, the Potency was inconclusive: 29.1 µM [inhibitor, single point].
For `CC[n+]1c(/C=C/N(C)c2ccccc2)n(-c2ccccc2)c2ccc(-c3nc4ccccc4s3)cc21`, the Potency was active: 2.51 µM.
With `O=C(c1ccc(Cl)cc1)C1CCCN(Cc2cccc3cccnc23)C1` (stereo not drawn) the Potency was inconclusive: 35.5 µM [inhibitor, single point].
With `COc1cc(Cn2c(=O)oc3ccc(C)cc32)ccc1OC(C)C` the Potency was “inactive”.
For `COc1ccc(S(=O)CC(=O)Nc2ccc(Cl)cc2Cl)cc1` (stereo not drawn), the Potency was “inactive”.
With `CCCOc1ccc(C2c3c(oc4ccccc4c3=O)C(=O)N2c2nnc(C(C)C)s2)cc1` (stereo not drawn) the Potency was “inactive”.
For `Cc1cccc(C(=O)NCC(=O)N2CCN(S(=O)(=O)/C=C/c3ccccc3)CC2)c1`, the Potency was “inactive”.
In the case of `CC1(C)Cc2cccc(OCC(=O)NCc3cccs3)c2O1`, the Potency was inconclusive: 35.5 µM [inhibitor, single point].
For `Cc1c(C(=O)c2ccc(Cl)cc2Cl)cnc2cc3c(cc12)OCO3`, the Potency was inconclusive: 29.1 µM [inhibitor, single point].
With `CC(=O)c1sc(-c2ccc(Cl)cc2)nc1C` the Potency was inconclusive: 7.08 µM [activator, full curve, poor fit].
In the case of `c1ccc(-c2csc(-n3cnnn3)n2)cc1`, the Potency was inconclusive: 1.16 µM [activator, single point].
For `COc1ccc(Oc2nc3c(C)cccn3c(=O)c2/C=C(\C#N)C(N)=O)cc1`, the Potency was inconclusive: 12.6 µM [inhibitor, partial curve, poor fit].
For `N#Cc1c(SCC(=O)Nc2nccs2)sc2c(O)cc(=O)[nH]c12`, the Potency was inconclusive: 15.8 µM [activator, single point].
In the case of `Cc1ccc(-n2c(=O)c(C#N)cc3c(=O)n4ccccc4nc32)cc1`, the Potency was inconclusive: 1.26 µM [inhibitor, single point].
With `CN(Cc1cccs1)C(=O)c1ccc(Cl)c(S(=O)(=O)N2CCCCCC2)c1` the Potency was inconclusive: 11.2 µM [inhibitor, partial curve].
For `CC(C)Cn1c(N)c(C(=O)COC(=O)c2cc(S(=O)(=O)N3CCOCC3)ccc2Br)c(=O)n(C)c1=O`, the Potency was inconclusive: 22.4 µM [inhibitor, single point].
For `O=C(COC(=O)CCC(=O)c1ccc(Cl)cc1)NCc1ccc(F)cc1`, the Potency was “inactive”.
For `O=C(NCc1ccccc1)C(c1ccc(F)cc1)N(Cc1ccc2c(c1)OCO2)C(=O)Cn1nnc(-c2cccs2)n1` (stereo not drawn), the Potency was “inactive”.
With `CCN(CC)c1ccc(/C=N/N(c2ccccc2)c2ccccc2)c(O)c1` the Potency was inconclusive: 25.1 µM [inhibitor, single point].
Potency means the concentration at half of the fitted maximal effect.
